Results published in the supplement of paper PMC5949888.
Most values lie at the floor of the assay. Slopes are relative: functional sequences can read slightly below zero.

What follows are substances tested on Saccharomyces cerevisiae PS128 hsf1 delta, HSF1(1-493) fusion (assay: growth estimate (transactivation domain function in HSF1 fusion, heat-shock survival) (a.u. (slope of normalised read count over time)); higher = stronger growth at 37°C, i.e. more transactivation activity). Settings: library: random library.
Experimental: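 Random 60-nt DNA library encoding peptides of up to 20 aa, fused to the C-terminus of yeast HSF1 residues 1-493 (C-terminal TAD deleted) and expressed from the native HSF1 promoter on a CEN plasmid in hsf1-deleted S. cerevisiae PS128. Cells were selected at 37°C on -trp 5-FOA plates for 0, 2, 4, 6 and 8 days and amplicons were sequenced. Growth estimate is the slope of a robust linear fit of total-sum-normalised read counts (normalised to the first time point) over time, using at least 2 replicates. Sequences are classed functional (TAD activity) above a threshold of -0.13, set from stop-codon control sequences.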
NHPRRAHSIKKLSGYGHALI gave a growth estimate of less than -0.25.
WEGGWYERWGT was tested, and the growth estimate was less than -0.25.
IIVRIRDPRPYTGMLSECQT was tested, and the growth estimate was less than -0.25.
Work on RFSKWAVGRRLYFGCLARSP yielded a growth estimate of less than -0.25.
RGLATHFTDSTHGSCRQ was tested, and the growth estimate was -0.245.
Substance SPAARTH has a growth estimate of less than -0.25.
SGHGWVHLVFETLDPRF gave a growth estimate of less than -0.25.
Substance PKLQERYDFGYEVSMEGAS has a growth estimate of less than -0.25.
In the case of TCLKIWVVGILLETSR, the growth estimate is reported as less than -0.25.
PAIAVK was tested, and the growth estimate was less than -0.25.
TQGIPLHAASVLKLEPLPVV showed a growth estimate of less than -0.25.
HGSIVLRLWSDENAEQRVRT showed a growth estimate of less than -0.25.
Work on GIVMPVFRWYAGRGRRNVAH yielded a growth estimate of less than -0.25.
VHSLPPGS was tested, and the growth estimate was less than -0.25.
With TVGLTKRRRV the growth estimate was less than -0.25.
Work on MGVAAIVTPSTVQLPPSHDT yielded a growth estimate of less than -0.25.
Substance SLWG has a growth estimate of less than -0.25.
VYRCMVSLAGTRIVCWRRGF gave a growth estimate of less than -0.25.
With RSKREDTRKAR the growth estimate was -0.236.
Substance KSLVRRINSSILDSQVMRAV has a growth estimate of less than -0.25.
Substance GRRLGFEAGPSPRSEIIV has a growth estimate of less than -0.25.
HREFRSAG showed a growth estimate of less than -0.25.
ATLAETQPFVRLMR showed a growth estimate of less than -0.25.
LEEGAGSESRTLKMMLDVTG gave a growth estimate of less than -0.25.
YKPADRRRLANRVRAPCAWE showed a growth estimate of less than -0.25.
RKSGVR showed a growth estimate of less than -0.25.
With TQGPRGWH the growth estimate was -0.229.
RRMGRYRGVDTRRQSYSNTV was tested, and the growth estimate was less than -0.25.
In the case of MAQLAASLPRIYGGTGKDER, the growth estimate is reported as less than -0.25.
For SLAFPIRA, the growth estimate was less than -0.25.
In the case of ASQLTITYGNRDVLFTQAHY, the growth estimate is reported as less than -0.25.
Substance LTRRDQQNIPTLKYGLVC has a growth estimate of less than -0.25.
WIA gave a growth estimate of less than -0.25.
Substance SAPLRCLLSAESTLDWTRQS has a growth estimate of less than -0.25.
In the case of CKARLRLLR, the growth estimate is reported as less than -0.25.
With ERQGTSESIGLLCGL the growth estimate was less than -0.25.
In the case of TGFGLVEAIWDVS, the growth estimate is reported as -0.172.
MRVGDQGYRPLLRPKNRMTS was tested, and the growth estimate was less than -0.25.
In the case of LKELTGRWGDGAVFAEFVQH, the growth estimate is reported as less than -0.25.
Work on VSIASRPNRLRCTRQRPSPR yielded a growth estimate of less than -0.25.
In the case of QTTLQWSGLEGLTCLRHSAR, the growth estimate is reported as less than -0.25.
CPIPFMVGR gave a growth estimate of less than -0.25.
FAGSVLLFYSRYIGFFQPSS gave a growth estimate of less than -0.25.
With KEIRHWL the growth estimate was less than -0.25.
In the case of LPTTVLRSVEK, the growth estimate is reported as less than -0.25.
With LPVVC the growth estimate was less than -0.25.
For TNSTSWPIRAVPRAGPWHGG, the growth estimate was less than -0.25.
RAVSPTTASLEGTPA showed a growth estimate of less than -0.25.
RIHTKEFFYRVHSRQPGPAP gave a growth estimate of less than -0.25.
HVVVRPSLRPFIEFVQAPFL was tested, and the growth estimate was less than -0.25.
Substance RYVG has a growth estimate of less than -0.25.
For GWATF, the growth estimate was less than -0.25.
In the case of GRRRDRAARSIGWWWGEPLN, the growth estimate is reported as less than -0.25.
LLLRI was tested, and the growth estimate was less than -0.25.
In the case of FLALQGGGITECVIQVSCKR, the growth estimate is reported as less than -0.25.
CGLPKALV was tested, and the growth estimate was less than -0.25.
YLTTVWPKSRSTSRGGVE gave a growth estimate of less than -0.25.
With SGRLCSLGRVGGAISFSPNV the growth estimate was less than -0.25.
Substance RLH has a growth estimate of less than -0.25.
EEHLQKGFNFHVCQLNQ was tested, and the growth estimate was less than -0.25.
Work on WLDQSNPECVFGISVFAVAR yielded a growth estimate of less than -0.25.
For YAAAAASWANRL, the growth estimate was less than -0.25.
DLYGSVSLHNLIMETLT was tested, and the growth estimate was less than -0.25.
LHKDWVRISQGWSGVDKLRG was tested, and the growth estimate was less than -0.25.
VGRFFLNWTSVSAESWIQT showed a growth estimate of less than -0.25.
DRRAKDGRLELWRG was tested, and the growth estimate was less than -0.25.
In the case of AHEVAVAFRYSGRLPG, the growth estimate is reported as less than -0.25.
For ACIVLME, the growth estimate was less than -0.25.
With LPDGRI the growth estimate was less than -0.25.
Substance GYAQPTGTEFLCTLICWIGP has a growth estimate of -0.237.
VRGCRVSWILSRLCMMA showed a growth estimate of less than -0.25.
With SKTESGAYWVREYPKGVSPK the growth estimate was less than -0.25.
VTGADTDRTTGLVHNRADTG gave a growth estimate of less than -0.25.
VSSCAG showed a growth estimate of less than -0.25.
LPPS showed a growth estimate of less than -0.25.
Substance ISPCDGGT has a growth estimate of less than -0.25.
For GRLLTNCPTPTKSSCSKRRA, the growth estimate was less than -0.25.
For VTCNPRYGA, the growth estimate was less than -0.25.
Substance IGTMRGVFEDIGKIKRGMFE has a growth estimate of less than -0.25.
Substance DGICAITRGALKLR has a growth estimate of less than -0.25.
ISESPGTCC was tested, and the growth estimate was less than -0.25.
FWTRRKLPV was tested, and the growth estimate was less than -0.25.
Work on KLQLHMFAGISLGRI yielded a growth estimate of less than -0.25.
RSQAIYL was tested, and the growth estimate was less than -0.25.
In the case of SAAERVRSGREEDADMPSSI, the growth estimate is reported as less than -0.25.
Work on GQKLAHPESA yielded a growth estimate of less than -0.25.
STLLLIRSVL gave a growth estimate of less than -0.25.
In the case of EPEVCVRE, the growth estimate is reported as less than -0.25.
For GPKTSERPEADWS, the growth estimate was less than -0.25.
KQTTVHEGKGSGGNCPNHTC showed a growth estimate of less than -0.25.
With GSSPVILYKFVAPHWKYSTA the growth estimate was less than -0.25.
Substance EERKPAEVGEMCVHVPFL has a growth estimate of less than -0.25.
YYCVAR showed a growth estimate of less than -0.25.
In the case of GPTRLLTW, the growth estimate is reported as less than -0.25.
SETGSLTGSTFSSTECKCTS showed a growth estimate of less than -0.25.
Work on SGEDTGPVVSRTG yielded a growth estimate of less than -0.25.
